Results deposited as PubChem BioAssay AID504793 (Drosophila RNAi Screening Center, 2011).
Aim: 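Genes required for cells to halt at G2/M after double-strand DNA breaks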 (primary screen). System: Drosophila S2R+ cells. Reagents: long dsRNA against Drosophila genes, about 0.25 µg dsRNA per well. Duration: 4 days of dsRNA, then 4 hours of drug before read-out. Treatment: doxorubicin 0.5 µM for 4 hours to cause double-strand breaks, in cells also given a low, harmless dose of dsRNA against nbs to sensitise the assay. Read-out: 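Mitotic index as the number of phospho-histone H3-positive cells in each well following doxorubicin, given as raw counts without normalisation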. Reading the numbers: mitotic cells: higher = more cells in mitosis, weaker G2 arrest. Call rule: 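a call needs confirmation in secondary tests, with other dsRNAs and a check of mitotic timing without damage, not just a high primary count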. Calls: active = confirmed in follow-up tests; inactive = not confirmed.
The screen tested about 23,000 reagents; below is a random part of those with a known target gene and a result. Over the whole deposit, 62 (0.27%) are marked active. 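Calls come from follow-up tests whose scores are not deposited, so confirmed genes may have low counts here; counts are not normalised per plate.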 The raw values are shown without normalisation. Reagents against one gene are numbered here. A plus sign joins genes that one reagent is predicted to hit.

no.	Gene	reagent	mitotic cells, replicate 1	outcome
1	Tango5	1	7	inactive
2	Tango5	2	7	inactive
3	CG9068	1	7	inactive
4	CG9876	1	3	inactive
5	Spec2 (retired record)	1	2	inactive
6	Spec2 (retired record)	2	9	inactive
7	CG7133	1	6	inactive
8	RpS10a	1	1	inactive
9	RpS10a	2	6	inactive
10	CheB42a	1	6	inactive
11	CG11584	1	11	inactive
12	CG11584	2	6	inactive
13	CG14275	1	7	inactive
14	CG14275	2	3	inactive
15	CG15475	1	2	inactive
16	CG15475	2	7	inactive
17	se	1	4	inactive
18	Gpo3	1	5	inactive
19	CG32106	1	9	inactive
20	pdgy	1	5	inactive
21	pdgy	2	8	inactive
22	Gem2	1	6	inactive
23	Plod	1	4	inactive
24	Plod	2	3	inactive
25	CG11635 + spaw	1	4	inactive
26	Tim8	1	11	inactive
27	CG11241	1	8	inactive
28	CG11241	2	9	inactive
29	capt	1	4	inactive
30	capt	2	2	inactive
31	capt	3	7	inactive
32	capt	4	5	inactive
33	CG6424	1	9	inactive
34	CG6424	2	6	inactive
35	Pcd	1	14	inactive
36	CG34324	1	12	inactive
37	CG4269	1	7	inactive
38	ATPsynepsilonL	1	5	inactive
39	Efa6	1	21	inactive
40	Efa6	2	12	inactive
41	Efa6	3	11	inactive
42	CG11456	1	7	inactive
43	CG10931	1	5	inactive
44	E(bx)	1	7	inactive
45	E(bx)	2	21	active
46	E(bx)	3	39	active

Laid out differently: results already given
{"Gene":"CG6424","reagent":2,"mitotic cells, replicate 1":6,"outcome":"inactive"}
{"Gene":"Pcd","reagent":1,"mitotic cells, replicate 1":14,"outcome":"inactive"}
{"Gene":"CG34324","reagent":1,"mitotic cells, replicate 1":12,"outcome":"inactive"}
{"Gene":"CG4269","reagent":1,"mitotic cells, replicate 1":7,"outcome":"inactive"}
